Measurements: PMC3998894
These are yes or no findings as the source states them, for the method shown. Binding calls can cover weak binding; strength is not graded here. Tags and fused reporters may be left off the sequences shown. For some assays here: Binding seen in cells or lysates may run through a third protein.

T1: POD-6 (yeast two-hybrid fusion) (N. crassa) (UniProt V5IQR8)
T1 sequence: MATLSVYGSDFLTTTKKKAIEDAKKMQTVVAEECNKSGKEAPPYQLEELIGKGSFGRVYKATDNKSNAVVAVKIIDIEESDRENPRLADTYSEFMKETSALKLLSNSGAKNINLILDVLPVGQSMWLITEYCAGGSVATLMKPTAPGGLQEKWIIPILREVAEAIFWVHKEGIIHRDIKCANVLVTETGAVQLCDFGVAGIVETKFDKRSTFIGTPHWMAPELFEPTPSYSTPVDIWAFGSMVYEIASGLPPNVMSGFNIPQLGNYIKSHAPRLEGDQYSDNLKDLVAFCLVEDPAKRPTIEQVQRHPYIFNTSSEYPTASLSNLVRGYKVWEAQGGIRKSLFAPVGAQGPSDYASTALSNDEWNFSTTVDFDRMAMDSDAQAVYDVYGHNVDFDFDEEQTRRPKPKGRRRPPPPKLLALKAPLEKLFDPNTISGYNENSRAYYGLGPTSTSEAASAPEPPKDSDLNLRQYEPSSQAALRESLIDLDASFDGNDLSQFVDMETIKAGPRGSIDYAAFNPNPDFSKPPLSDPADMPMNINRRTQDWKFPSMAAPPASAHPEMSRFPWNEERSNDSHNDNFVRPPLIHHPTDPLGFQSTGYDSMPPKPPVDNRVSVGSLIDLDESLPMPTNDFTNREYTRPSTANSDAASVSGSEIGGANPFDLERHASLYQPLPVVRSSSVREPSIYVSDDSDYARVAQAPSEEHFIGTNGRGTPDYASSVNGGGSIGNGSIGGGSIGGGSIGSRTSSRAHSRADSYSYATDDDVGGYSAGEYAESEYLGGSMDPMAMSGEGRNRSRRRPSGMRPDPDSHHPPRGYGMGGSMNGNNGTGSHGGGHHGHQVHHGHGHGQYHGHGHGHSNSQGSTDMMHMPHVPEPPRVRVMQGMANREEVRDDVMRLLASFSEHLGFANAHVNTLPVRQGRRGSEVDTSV


Experiments:
[1] = target: T1, POD-6 (yeast two-hybrid fusion) (N. crassa); assay: two-hybrid; Matchmaker Two-Hybrid system 3; Gal4 activation domain (pGADT7) and DNA-binding domain (pGBKT7) fusions co-expressed in S. cerevisiae AH109; growth on SD lacking adenine, histidine, leucine and tryptophan or on SD with 10 mM 3-amino-1,2,4-triazole lacking leucine, tryptophan and histidine
MST-1-GFP (N. crassa) = assay: co-IP; cell extracts from fused heterokaryotic N. crassa strains co-expressing both tagged proteins; beads washed twice with IP buffer (50 mM Tris/HCl pH 7.5, 100 mM KCl, 10 mM MgCl2, 0.1% NP-40); Western blot

binding [1]	binding (MST-1-GFP (N. crassa))	Molecule
binds	–	MST-1 (yeast two-hybrid fusion) (N. crassa) (enzyme)
–	binds	HA-POD-6 (enzyme, UniProt V5IQR8 1-928) MATLSVYGSDFLTTTKKKAIEDAKKMQTVVAEECNKSGKEAPPYQLEELIGKGSFGRVYKATDNKSNAVVAVKIIDIEESDRENPRLADTYSEFMKETSALKLLSNSGAKNINLILDVLPVGQSMWLITEYCAGGSVATLMKPTAPGGLQEKWIIPILREVAEAIFWVHKEGIIHRDIKCANVLVTETGAVQLCDFGVAGIVETKFDKRSTFIGTPHWMAPELFEPTPSYSTPVDIWAFGSMVYEIASGLPPNVMSGFNIPQLGNYIKSHAPRLEGDQYSDNLKDLVAFCLVEDPAKRPTIEQVQRHPYIFNTSSEYPTASLSNLVRGYKVWEAQGGIRKSLFAPVGAQGPSDYASTALSNDEWNFSTTVDFDRMAMDSDAQAVYDVYGHNVDFDFDEEQTRRPKPKGRRRPPPPKLLALKAPLEKLFDPNTISGYNENSRAYYGLGPTSTSEAASAPEPPKDSDLNLRQYEPSSQAALRESLIDLDASFDGNDLSQFVDMETIKAGPRGSIDYAAFNPNPDFSKPPLSDPADMPMNINRRTQDWKFPSMAAPPASAHPEMSRFPWNEERSNDSHNDNFVRPPLIHHPTDPLGFQSTGYDSMPPKPPVDNRVSVGSLIDLDESLPMPTNDFTNREYTRPSTANSDAASVSGSEIGGANPFDLERHASLYQPLPVVRSSSVREPSIYVSDDSDYARVAQAPSEEHFIGTNGRGTPDYASSVNGGGSIGNGSIGGGSIGGGSIGSRTSSRAHSRADSYSYATDDDVGGYSAGEYAESEYLGGSMDPMAMSGEGRNRSRRRPSGMRPDPDSHHPPRGYGMGGSMNGNNGTGSHGGGHHGHQVHHGHGHGQYHGHGHGHSNSQGSTDMMHMPHVPEPPRVRVMQGMANREEVRDDVMRLLASFSEHLGFANAHVNTLPVRQGRRGSEVDTSV
